# Laboratory results published in the supplement of paper PMC10727501.
# Some of the results follow. This data set is noisy: repeats of one test often differ as much as different tests do.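 Free-swimming zebrafish larvae were assessed for O-bend response probability to dark flashes (naive: first five; training: remaining flashes across four 60-flash blocks; test: later 60-flash block) and for OMR turning toward alternating leftward/rightward LED motion. Six treated larvae were compared against sixty 0.1% DMSO controls; hits required |SSMD|≥2.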
# System: Danio rerio larvae (5 dpf, TLF)
# Assay: Prob-Naive (SSMD vs DMSO vehicle); higher = higher than vehicle (e.g. higher dark-flash O-bend response probability, or better optomotor performance)
# Conditions: 10 µM; pre-incubation: 30-90 min
row,Compound,Prob-Naive
1,COc1ccc([C@@H]2CC(=O)c3c(O)cc(O[C@@H]4O[C@H](CO[C@@H]5O[C@@H](C)[C@H](O)[C@H](O)[C@H]5O)[C@@H](O)[C@H](O)[C@H]4O)cc3O2)cc1O [Hesperidin],-0.534
2,O=C(/C=C/c1cccnc1)NCCCCC1CCN(C(=O)c2ccccc2)CC1,-0.163
3,CCOC(=O)[C@H](CCc1ccccc1)N[C@H]1CS[C@H](c2cccs2)CN(CC(=O)O)C1=O.Cl [Temocapril HCl],0.338
4,COC(=O)C1=C(C)NC(C)=C(C(=O)OC)C1c1ccccc1[N+](=O)[O-] [Nifedipine],0.184
5,CCNC(=O)CCC/C=C\C[C@@H]1[C@@H](/C=C/C(O)CCc2ccccc2)[C@H](O)C[C@@H]1O (some centres undefined) [Bimatoprost],0.471
6,Oc1ccc(-c2nc(-c3ccc(F)cc3)c(-c3ccncc3)[nH]2)cc1,0.568
7,COc1ccc(-c2cc(=O)c3c(O)cc(O)cc3o2)cc1O [Diosmetin],-0.298
8,CC1(C)S[C@H]2[C@H](NC(=O)[C@H](N)c3ccc(O)cc3)C(=O)N2[C@H]1C(=O)O [Amoxicillin],-0.195
9,CC[C@]1(O)C[C@@H]2CN(CCc3c([nH]c4ccccc34)[C@@](C(=O)OC)(c3cc4c(cc3OC)N(C=O)[C@H]3[C@@](O)(C(=O)OC)[C@H](OC(C)=O)[C@]5(CC)C=CCN6CC[C@@]43[C@@H]65)C2)C1.O=S(=O)(O)O [Vincristine],0.214
